Values joined by “and” are separate entries in the source; they are usually repeats but may differ in a detail not shown here. Equal entries are not always repeated. The campaign covered roughly 390,000 compounds. About 4,000 (1%) were called active. The shares of active, inactive and inconclusive entries below differ from those in the screen. The call rests on the fitted dose curve; in most records, active means well fitted inhibition curve with a large enough effect; inconclusive means small, poorly fitted or top-dose-only effect, or another doubt; inactive means no such curve, though single readings can be large or run the other way. Potencies beside an inconclusive call are fits to weak or partial responses and may not hold up.
target: DNA polymerase iota (Homo sapiens) (UniProt Q9UNA4); experiment: qHTS for Inhibitors of Polymerase Iota; conditions: Pol iota fluorescent replication assay, 10 min; series mostly up to 115 µM
Summary of the method: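 Fluorescent replication assay read twice, at 0 min and 10 min after adding 50 nM (final) substrate. Enzyme (10 nM) and compounds were first incubated 15 min at room temperature; enzyme-free buffer wells were negative controls.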
Potency means the concentration at half of the fitted maximal effect.

By UniProt entry, the sequences of proteins in these tests, tags left out. Where a name states a change or a piece, a line headed by the entry shows the natural chain unless it says otherwise.
UniProt Q9UNA4: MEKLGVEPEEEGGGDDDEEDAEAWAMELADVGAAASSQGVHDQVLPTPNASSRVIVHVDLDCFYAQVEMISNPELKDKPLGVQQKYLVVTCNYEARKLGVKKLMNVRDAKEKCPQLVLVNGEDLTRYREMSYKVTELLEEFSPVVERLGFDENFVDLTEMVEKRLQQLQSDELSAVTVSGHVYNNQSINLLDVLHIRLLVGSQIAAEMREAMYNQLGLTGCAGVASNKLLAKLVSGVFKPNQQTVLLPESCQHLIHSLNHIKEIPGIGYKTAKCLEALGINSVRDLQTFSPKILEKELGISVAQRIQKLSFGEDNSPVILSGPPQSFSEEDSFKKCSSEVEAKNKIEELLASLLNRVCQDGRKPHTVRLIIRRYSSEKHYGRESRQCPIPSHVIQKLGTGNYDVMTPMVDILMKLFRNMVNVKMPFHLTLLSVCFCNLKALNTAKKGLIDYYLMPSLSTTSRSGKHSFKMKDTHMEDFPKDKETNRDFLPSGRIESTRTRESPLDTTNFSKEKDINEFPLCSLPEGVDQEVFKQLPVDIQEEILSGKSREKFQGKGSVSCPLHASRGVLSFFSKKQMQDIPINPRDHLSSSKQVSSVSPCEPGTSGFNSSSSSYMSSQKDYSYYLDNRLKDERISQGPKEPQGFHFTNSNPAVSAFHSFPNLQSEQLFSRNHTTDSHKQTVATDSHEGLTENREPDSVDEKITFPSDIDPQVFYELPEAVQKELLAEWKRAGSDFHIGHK

| Structure (SMILES) | Potency |
| --- | --- |
| Cc1nc2scc(-c3ccco3)c2c(=O)n1/N=C/N(C)C | inconclusive: 14.1 µM [inhibitor, full curve, poor fit] |
| CCOC(=O)N1CC=C2C(C#N)=C(N)C(C#N)(C#N)[C@H](c3ccccc3OCC)[C@H]2C1 | inconclusive: 31.6 µM [inhibitor, partial curve] |
| Cc1nnc2n(c1=O)N=C(c1ccc(Cl)cc1)CS2 | inconclusive: 15.8 µM [inhibitor, partial curve, poor fit] |
| Cc1cc(C)cc(NC(=O)Cn2nnc(C(=O)NCc3cccs3)c2N)c1 | inconclusive: 89.1 µM [inhibitor, partial curve] |
| O=C(CSc1nc2c([nH]c3ccccc32)c(=O)n1-c1ccccc1)Nc1ccc(Cl)c(Cl)c1 | inactive |
| Cc1nc(SCC(=O)NCc2ccco2)c2c(C)c(C)sc2n1 | inactive |
| CCOc1ccc(NC(=O)Cn2nnc(C(=O)NCCc3ccccc3)c2N)cc1 | inconclusive: 56.2 µM [inhibitor, partial curve, poor fit] |
| COc1ccc(-c2cc(OC(=O)c3cccc(Cl)c3)c3c(C)oc(C)c3c(=O)c2)cc1 | inconclusive: 79.4 µM [inhibitor, partial curve, poor fit] |
| Cc1ccc(C)c(-n2cc(-c3ccccc3)nc2SCC(=O)Nc2ccccc2)c1 | inactive |
| Cc1nc2c(C(=O)NCc3ccccc3Cl)cnn2c(C)c1Cc1ccccc1 | inactive |
| CCOC(=O)c1ccccc1NC(=O)Cn1c(=O)n(CCCC(=O)NCc2ccc3c(c2)OCO3)c(=O)c2ccccc21 | inconclusive: 89.1 µM [inhibitor, single point] |
| O=C(CSc1nc2c([nH]c3ccccc32)c(=O)n1-c1ccc(Cl)cc1)N1CCCCCC1 | inconclusive: 79.4 µM [inhibitor, single point] |
| Cn1cnc([N+](=O)[O-])c1Sc1nc2ccccc2[nH]1 | inconclusive: 35.5 µM [inhibitor, partial curve, poor fit] |
| CCC(=O)Nc1nnc(/C=C/c2ccc(OC)cc2)s1 | inconclusive: 3.55 µM [inhibitor, partial curve, poor fit] |
| O=C(NCCO)c1ccc(CSc2nc3ccccc3[nH]2)cc1 | inactive |
| COc1ccc(C(=O)N2CCN(c3ccc(NC(=O)c4cccnc4)cc3)CC2)cc1 | inconclusive: 79.4 µM [inhibitor, partial curve, poor fit] |
| COc1ccc(CNC(=O)c2ccc(CSc3nc4ccncc4n3Cc3ccccc3F)cc2)cc1 | inconclusive: 89.1 µM [inhibitor, single point] |
| Cc1ccc(NC(=O)CN(C)C(=O)Cn2cc(C(F)(F)F)ccc2=O)cc1 | inactive |
| O=C(Nc1nc(-c2cccs2)c(C(=O)C(F)(F)F)s1)c1ccco1 | inactive |
| CCC(C)Sc1nnc(-c2c[nH]c3ccccc23)n1CCOC (stereo unspecified) | inconclusive: 3.16 µM [inhibitor, full curve, poor fit] |
| CCc1nc(Nc2ccc3c(c2)OCCO3)c2oc3ccccc3c2n1 | inconclusive: 22.4 µM [inhibitor, partial curve, poor fit] |

| Structure (SMILES) | Potency |
| --- | --- |
| C=CC(=O)Nc1ccc(Nc2ccnc(Nc3ccc(N4CCN(C)CC4)cc3)n2)cc1 | inconclusive: 28.2 µM [inhibitor, partial curve, poor fit] |
| CC1=NN(c2ccccc2)C(=O)/C1=C/C=C/c1ccccc1 | inactive |
| CC(=O)NCCC(=O)Nc1nc(-c2c[nH]c3ccccc23)cs1 | inconclusive: 25.1 µM [inhibitor, full curve, poor fit] |
| O=C(COC(=O)Cc1ccc(Cl)cc1)NCCc1ccccc1 | inconclusive: 14.1 µM [inhibitor, partial curve] |
| O=c1c(Oc2ccccc2Br)c(C(F)(F)F)oc2c(CN3CCCC3)c(O)ccc12 | inconclusive: 89.1 µM [inhibitor, partial curve, poor fit] |
| CC(=O)c1c(C)[nH]c(C(=O)NCCc2cccc(C)c2)c1C | inconclusive: 11.2 µM [inhibitor, single point] |
| O=C(O)c1[nH]c2ccccc2c1C(c1cccc(O)c1)c1c(C(=O)O)[nH]c2ccccc12 | inconclusive: 3.55 µM [inhibitor, full curve, poor fit] |
| CC(=O)N1CCN(S(=O)(=O)c2cccc(C(=O)Nc3ccc(F)c(F)c3)c2)CC1 | inconclusive: 100 µM [inhibitor, partial curve, poor fit] |
| Cc1cc(C)cc(C(=O)n2cnnc2N)c1 | inconclusive: 20 µM [inhibitor, single point] |
| COc1ccc(SCCN2CCN(CCc3ccccc3)CCC2=O)cc1 | inconclusive: 14.1 µM [inhibitor, single point] |
| Clc1ccc(Cl)c(OCCCCN2CCCCC2)c1 | inconclusive: 50.1 µM [inhibitor, partial curve] |
| Cc1ccc2[nH]c3c(NCCN4CCOCC4)ncnc3c2c1 | inconclusive: 44.7 µM [inhibitor, full curve, poor fit] |
| Cc1ccc(N2CCN(C(=O)C3CCN(c4ncnc5c4nc4n5CCCCC4)CC3)CC2)c(C)c1 | inactive |
| Cc1ccc2nc(NC(=O)c3nc(SCc4ccccc4C)ncc3Cl)sc2c1 | inconclusive: 35.5 µM [inhibitor, partial curve, poor fit] |
| COc1cc([C@H]2Oc3cc([C@H]4Oc5cc(O)cc(O)c5C(=O)[C@@H]4O)ccc3O[C@@H]2CO)ccc1O | inconclusive: 15.8 µM [inhibitor, full curve] |
| CCN(CC)S(=O)(=O)c1ccc(OC)c(NC(=O)COc2ccccc2[N+](=O)[O-])c1 | inconclusive: 79.4 µM [inhibitor, single point] |
| CN(Cc1ccccc1)C(=O)C1CCC(CNS(=O)(=O)c2ccc3c(c2)CCCC(=O)N3)CC1 (stereo unspecified) | inconclusive: 89.1 µM [inhibitor, single point] |
| CCn1c2ccccc2c2cc(NC(=O)CSc3nnc(-c4cccc(OC)c4)n3N)ccc21 | inconclusive: 22.4 µM [inhibitor, full curve, poor fit] |
| CNc1c(NS(=O)(=O)c2cc(NC(C)=O)ccc2C)c(=O)oc2ccccc12 | inconclusive: 89.1 µM [inhibitor, single point] |
| Cc1cc2oc(C(=O)Nc3ccc(S(=O)(=O)Nc4onc(C)c4C)cc3)cc(=O)c2cc1C | inconclusive: 89.1 µM [inhibitor, partial curve, poor fit] |
| Cc1ccc(CSCC(=O)N/N=C/c2ccc(OCC(=O)Nc3ccc(C)cc3)cc2)cc1 | inconclusive: 15.8 µM [inhibitor, partial curve, poor fit] |

Part of the list above in a different format:
Structure (SMILES),Potency
CC1=NN(c2ccccc2)C(=O)/C1=C/C=C/c1ccccc1,inactive
CC(=O)NCCC(=O)Nc1nc(-c2c[nH]c3ccccc23)cs1,"inconclusive: 25.1 µM [inhibitor, full curve, poor fit]"
O=c1c(Oc2ccccc2Br)c(C(F)(F)F)oc2c(CN3CCCC3)c(O)ccc12,"inconclusive: 89.1 µM [inhibitor, partial curve, poor fit]"
CC(=O)c1c(C)[nH]c(C(=O)NCCc2cccc(C)c2)c1C,"inconclusive: 11.2 µM [inhibitor, single point]"
O=C(O)c1[nH]c2ccccc2c1C(c1cccc(O)c1)c1c(C(=O)O)[nH]c2ccccc12,"inconclusive: 3.55 µM [inhibitor, full curve, poor fit]"
CC(=O)N1CCN(S(=O)(=O)c2cccc(C(=O)Nc3ccc(F)c(F)c3)c2)CC1,"inconclusive: 100 µM [inhibitor, partial curve, poor fit]"
COc1ccc(SCCN2CCN(CCc3ccccc3)CCC2=O)cc1,"inconclusive: 14.1 µM [inhibitor, single point]"
Clc1ccc(Cl)c(OCCCCN2CCCCC2)c1,"inconclusive: 50.1 µM [inhibitor, partial curve]"
Cc1ccc2[nH]c3c(NCCN4CCOCC4)ncnc3c2c1,"inconclusive: 44.7 µM [inhibitor, full curve, poor fit]"
Cc1ccc2nc(NC(=O)c3nc(SCc4ccccc4C)ncc3Cl)sc2c1,"inconclusive: 35.5 µM [inhibitor, partial curve, poor fit]"
CCN(CC)S(=O)(=O)c1ccc(OC)c(NC(=O)COc2ccccc2[N+](=O)[O-])c1,"inconclusive: 79.4 µM [inhibitor, single point]"
CNc1c(NS(=O)(=O)c2cc(NC(C)=O)ccc2C)c(=O)oc2ccccc12,"inconclusive: 89.1 µM [inhibitor, single point]"
Cc1ccc(CSCC(=O)N/N=C/c2ccc(OCC(=O)Nc3ccc(C)cc3)cc2)cc1,"inconclusive: 15.8 µM [inhibitor, partial curve, poor fit]"

Remaining list, next part

| Structure (SMILES) | Potency |
| --- | --- |
| COc1ccc(Br)cc1CN1CCN(C(=O)c2cccc(F)c2)CC1 | inconclusive: 4.47 µM [inhibitor, partial curve, poor fit] |
| NC[C@H](O)c1ccc(O)c(O)c1 | active: 3.98 µM |
| O=C(NCc1ccccc1CN1CCCC1)c1cccc(N2CCCC2=O)c1 | inconclusive: 79.4 µM [inhibitor, single point] |
| CCn1ncc(C(=O)Nc2ccc(F)cc2)c1C | inconclusive: 89.1 µM [inhibitor, single point] |
| COc1ccc(C(=O)NCc2ccc3c(c2)cc(C)n3C)cc1OC | inconclusive: 39.8 µM [inhibitor, single point] |
| O=C(COc1ccccc1)N(Cc1cccc(F)c1)C1CCS(=O)(=O)C1 (stereo unspecified) | inconclusive: 14.1 µM [inhibitor, full curve, poor fit] |
| OC[C@@H](O)[C@@H](O[C@H]1O[C@H](CO)[C@@H](O)[C@H](O)[C@H]1O)[C@H](O)[C@@H](O)CO | inconclusive: 89.1 µM [inhibitor, single point] |
| CCCC(C(=O)O)N1C(=O)/C(=C/c2cccn2C)SC1=S (stereo unspecified) | inconclusive: 112 µM [inhibitor, single point] |
| COc1cccc(N2CCN(c3ncc4c(n3)CCN(Cc3ccc(Br)cc3)C4)CC2)c1 | inactive |
| O=C(O)c1ccnc(C(=O)O)c1 | inconclusive: 22.4 µM [inhibitor, single point] |
| NC(=O)c1ccc(-c2c(-c3ccccc3)sc3ccccc23)cc1 | inconclusive: 25.1 µM [inhibitor, partial curve, poor fit] |
| C/C(N)=C(/C#N)C(=O)CSc1nnc(-c2ccc(OC(F)F)cc2)o1 | inconclusive: 56.2 µM [inhibitor, partial curve, poor fit] and inconclusive: 44.7 µM [inhibitor, partial curve, poor fit] |
| O=C(N/N=C/C1C(c2ccccc2)C1(Cl)Cl)c1cccc(Cl)c1 (stereo unspecified) | inconclusive: 79.4 µM [inhibitor, single point] |
| CC(=O)Oc1ccc(C(=O)Nc2cccc(C(=O)c3cccc(NC(=O)c4ccc(OC(C)=O)cc4)c3)c2)cc1 | active: 7.94 µM |
| Cc1ccccc1C(=O)N1CCN(C(c2ccccc2)c2ccccc2)CC1 | inconclusive: 31.6 µM [inhibitor, partial curve, poor fit] |
| O=c1c2ccccc2oc2cc(OCc3cccc(F)c3)cc(O)c12 | inconclusive: 22.4 µM [inhibitor, single point] |
| Cc1ccc(S(=O)(=O)N2[C@@H](c3ccccc3F)C(C(=O)O)=CC[C@H]2c2ccc(Cl)c(Cl)c2)cc1 | inactive |
| Cc1ccc(N2CCN(C3=NC(=O)/C(=C\c4cn[nH]c4-c4ccccc4)S3)CC2)cc1 | inactive |
| COc1ccc(Cl)cc1C(=O)Nc1ccc(NC(C)=O)cc1 | inconclusive: 100 µM [inhibitor, single point] |

Reference: PubChem BioAssay AID588590 (National Center for Advancing Translational Sciences (NCATS), 2011)
